# PubChem BioAssay AID1259425, University of Nebraska Medical Center – 2018
# Assay: 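Find knockdowns that reproduce the gene expression pattern seen when KSR1 is lost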 (primary screen)
# Cell system: HCT116 human colon cancer cells
# Reagents: siRNA pool against human genes, 50 nM siRNA
# Measurement: 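mRNA of six signature genes measured together by branched-DNA assay after 50 nM siRNA pool, blank removed, divided by geometric mean of two housekeeping genes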
# Direction: BNIP3L mRNA: higher = more BNIP3L transcript after knockdown; NDRG1 mRNA: higher = more NDRG1 transcript after knockdown; BNIP3 mRNA: higher = more BNIP3 transcript after knockdown
# In all, the deposit lists about 14,000 reagents; this is a random part of them. Not all columns of the deposit are shown. No sequences are given here. Not stated in the record: the time to read-out.
gene,"BNIP3L mRNA, set 1","NDRG1 mRNA, set 1","BNIP3 mRNA, set 1"
SHCBP1L (SHC binding and spindle associated 1 like),0.115,0.281,0.363
"ABL1 (ABL proto-oncogene 1, non-receptor tyrosine kinase)",0.0883,0.183,0.47
ANP32B (acidic nuclear phosphoprotein 32 family member B),0.0678,0.189,0.321
VPS18 (VPS18 core subunit of CORVET and HOPS complexes),0.0773,0.127,0.216
LSM5,0.115,0.545,0.255
ZNF490 (zinc finger protein 490),0.106,0.0831,0.256
TM6SF1 (transmembrane 6 superfamily member 1),0.0875,0.185,0.279
UVSSA (UV stimulated scaffold protein A),0.0887,0.316,0.468
XAF1 (XIAP associated factor 1),0.113,0.0967,0.358
RGS20 (regulator of G protein signaling 20),0.0832,0.135,0.294
GRAPL-AS1 (GRAPL antisense RNA 1),0.204,0.856,0.52
EHD4 (EH domain containing 4),0.0862,0.234,0.297
SPRR1B (small proline rich protein 1B),0.14,0.692,0.584
DGKQ (diacylglycerol kinase theta),0.0186,0.329,0.258
UBA3 (ubiquitin like modifier activating enzyme 3),0.0947,0.301,0.263
LRP2BP (LRP2 binding protein),0.347,0.31,0.176
CYP26B1 (cytochrome P450 family 26 subfamily B member 1),0.0724,0.286,0.384
PNO1 (partner of NOB1 homolog),0.0769,0.164,0.277
TCL6 (T cell leukemia/lymphoma 6),0.0992,0.143,0.266
NHS (NHS actin remodeling regulator),0.106,0.144,0.194
GUF1 (GTP binding elongation factor GUF1),0.171,0.0779,0.3
SLC25A38,0.0577,0.352,0.314
FGF23 (fibroblast growth factor 23),0.11,0.0449,0.24
MYF6 (myogenic factor 6),0.152,0.0762,0.266
SDHA (succinate dehydrogenase complex flavoprotein subunit A),0.108,0.103,0.177
IFI35 (interferon induced protein 35),0.192,0.0451,0.502
UPK2 (uroplakin 2),0.158,0.545,0.236
LGR6 (leucine rich repeat containing G protein-coupled receptor 6),0.0749,0.129,0.268
IPO4 (importin 4),0.0752,0.0994,0.301
CCNE1 (cyclin E1),0.0879,0.117,0.244

Single entries from above:
DGKQ (diacylglycerol kinase theta), NDRG1 mRNA, set 1 → 0.329
For “BNIP3L mRNA, set 1”, CCNE1 (cyclin E1) shows 0.0879
For “NDRG1 mRNA, set 1”, TCL6 (T cell leukemia/lymphoma 6) reads 0.143
Value of NHS (NHS actin remodeling regulator) under “BNIP3L mRNA, set 1”: 0.106
Value for TM6SF1 (transmembrane 6 superfamily member 1) under “BNIP3L mRNA, set 1”: 0.0875

The listing continues.
gene,"BNIP3L mRNA, set 1","NDRG1 mRNA, set 1","BNIP3 mRNA, set 1"
ULK4 (unc-51 like kinase 4),0.163,0.106,0.297
CLEC2D (C-type lectin domain family 2 member D),0.113,0.399,0.297
SYNDIG1 (synapse differentiation inducing 1),0.0745,0.648,0.547
HSPH1 (heat shock protein family H (Hsp110) member 1),0.158,0.0905,0.25
TH (tyrosine hydroxylase),0.149,0.144,0.268
"TARS2 (threonyl-tRNA synthetase 2, mitochondrial)",0.112,0.231,0.345
ALX3 (ALX homeobox 3),0.171,0.195,0.416
SSRP1 (structure specific recognition protein 1),0.133,0.368,0.231
ABTB2 (ankyrin repeat and BTB domain containing 2),0.179,0.155,0.349
GOSR1 (golgi SNAP receptor complex member 1),0.129,0.088,0.386
ALMS1 (ALMS1 centrosome and basal body associated protein),0.0449,0.176,0.358
MYOM2 (myomesin 2),0.0873,0.477,0.181
MRPL36 (mitochondrial ribosomal protein L36),0.0929,0.0871,0.285
CDK2 (cyclin dependent kinase 2),0.19,0.251,0.444
SLC7A5P1,0.464,0.518,0.46
BICC1 (BicC family RNA binding protein 1),0.217,0.508,0.306
ATP6V0E1 (ATPase H+ transporting V0 subunit e1),0.0984,1.05,0.324
BCCIP (BRCA2 and CDKN1A interacting protein),0.114,0.112,0.45
ITFG2 (integrin alpha FG-GAP repeat containing 2),0.0816,0.13,0.373
ACADS (acyl-CoA dehydrogenase short chain),0.114,0.276,0.262
